Measured values as given in patent publication US20230365582A1, “NOVEL COMPOUNDS HAVING INHIBITORY ACTIVITY ON PROSTAGLANDIN E2 RECEPTOR AND USES THEREOF” (KANAPH THERAPEUTICS INC., priority 2020, published 2023).
At least one structure is not confirmed: it was looked up by name or label, or the drawing left a doubt. Some results were stated once for a whole list of compounds, not compound by compound.

By UniProt entry, the sequences of proteins in these tests, tags left out. Where a name states a change or a piece, a line headed by the entry shows the natural chain unless it says otherwise.
UniProt P35408: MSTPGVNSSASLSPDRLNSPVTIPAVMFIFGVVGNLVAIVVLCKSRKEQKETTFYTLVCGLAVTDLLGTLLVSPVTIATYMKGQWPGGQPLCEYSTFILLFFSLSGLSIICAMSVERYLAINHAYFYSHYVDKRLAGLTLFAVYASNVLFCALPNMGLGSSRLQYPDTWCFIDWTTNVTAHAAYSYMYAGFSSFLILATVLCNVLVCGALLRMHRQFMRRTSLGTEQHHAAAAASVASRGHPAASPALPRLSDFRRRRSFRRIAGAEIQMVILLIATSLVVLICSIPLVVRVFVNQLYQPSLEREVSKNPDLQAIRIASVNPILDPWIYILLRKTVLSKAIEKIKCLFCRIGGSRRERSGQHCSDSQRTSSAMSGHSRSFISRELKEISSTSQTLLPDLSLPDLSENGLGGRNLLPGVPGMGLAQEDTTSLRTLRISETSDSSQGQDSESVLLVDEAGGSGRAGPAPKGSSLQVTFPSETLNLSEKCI
UniProt P43116: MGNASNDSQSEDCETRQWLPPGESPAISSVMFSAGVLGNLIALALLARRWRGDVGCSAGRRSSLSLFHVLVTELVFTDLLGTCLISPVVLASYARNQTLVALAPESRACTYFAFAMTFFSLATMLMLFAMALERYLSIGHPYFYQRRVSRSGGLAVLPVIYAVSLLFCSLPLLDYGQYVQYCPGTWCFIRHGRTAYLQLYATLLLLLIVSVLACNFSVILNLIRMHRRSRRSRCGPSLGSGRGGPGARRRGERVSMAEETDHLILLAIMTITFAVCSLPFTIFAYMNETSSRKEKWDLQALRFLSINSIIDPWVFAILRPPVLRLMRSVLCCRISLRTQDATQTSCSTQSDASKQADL

What was measured:
hEP4 = molecular target: T1, hEP4 (Homo sapiens, UniProt P35408); experiment: hEP4 cAMP assay; type: cell-based
T1 construct: expressed in transfected cells; host or cells: HEK293
Protocol: (§1) HEK293 cells overexpressing hEP4 were cultured in growth medium (GM: MEM (Gibco™, 11095080)/10% HI FBS (Gibco™, 10082147)/1% penicillin/streptomycin). Before the experiment, the growth medium was removed, and starvation medium (HBSS (Gibco™ 14025076)/10% GM) was added. Thereafter, the cells were incubated for 4 hours. HEK293 cells harboring hEP4 were detached from the culture dish with a non-enzymatic cell dissociation buffer (Gibco™, 15040066). The cells were resuspended in assay buffer (AB: HBSS, 0.1% BSA stabilizer, 0.5 mM IBMX, 5 mM HEPES).
(§2) 1,000 cells in 5 μL of AB were seeded per well in a 384 well plate (Corning®, 3570), and stock solutions of test compounds were prepared at a concentration of 1 mM in DMSO and serially diluted in DMSO to the concentration required for the inhibition dose response curve (test concentration range of 10 μM-0.001 nM). […]
(§3) 5 μL of each donor (Eu-cAMP tracer) and acceptor (ULight-anti-cAMP) was added, and the plate was incubated in the dark for 1 hour at room temperature, and then a Varioskan LUX multimode microplate reader was used to obtain the results (excitation: 334 nm, emission: 615 and 665 nm). The resulting FRET fluorescence value (665 nm/615 nm*10000) was converted and then calculated as a percentage of cAMP compared to the DMSO control value. […]

hEP2 = molecular target: T2, hEP2 (Homo sapiens, UniProt P43116); experiment: hEP2 cAMP assay; type: cell-based
T2 construct: expressed in transfected cells; host or cells: HEK293
Protocol: as §1, with “overexpressing hEP2” for “overexpressing hEP4”, “(HBSS (Gibco™,” for “(HBSS (Gibco™”, “hours. The” for “hours.”, “harboring hEP2” for “harboring hEP4”
as §2, with “(Corning™,” for “(Corning®,”
as §3, with “relative” for “compared”

## COc1cc(F)cc(-c2ccc(Cn3ccc4scc(C(=O)NC5CC6(C5)CC(C(=O)O)C6)c43)cc2)c1 [Example 86, (2R,4R,6R)-6-(4-((3′-fluoro-5′-methoxy-[1,1′-biphenyl]-4-yl)methyl)-4H-thieno[3,2-b]pyrrole-3-carboxamido)spiro[3.3]heptane-2-carboxylic acid]
hEP4; HEK293 cells overexpressing hEP4, PGE2 agonist 20 nM, graded per Table 21, read-out: IC50 (nM) EP4 cAMP
  IC50: < 500 nM
hEP2; HEK293 cells overexpressing hEP2, PGE2 agonist 400 pM, graded per Table 21, read-out: IC50 (nM) EP2 cAMP
  IC50: < 500 nM

## COc1cc(F)cc(-c2ccc(Cn3ccc4scc(C(=O)NC5CC6(C5)CC(C(=O)O)C6)c43)cc2)c1 (stereo not shown) [Example 97, 6-4-((3′-fluoro-5′-methoxy[1,1′-biphenyl-4-yl)methyl)-4H-thieno[3,2-b]pyrrole-3-carboxamido)spiro[3.3]heptane-2-carboxylic acid]
hEP4; summary statement in words
  inhibitory activity on EP4: excellent inhibitory activity
hEP2; summary statement in words
  inhibitory activity on EP2: excellent inhibitory activity
